## Percent effect of library compounds

Protein sequences, listed by entry. Tags and fused reporters are not part of them. Residues count along the entry.
UniProt A4I591, 1-473: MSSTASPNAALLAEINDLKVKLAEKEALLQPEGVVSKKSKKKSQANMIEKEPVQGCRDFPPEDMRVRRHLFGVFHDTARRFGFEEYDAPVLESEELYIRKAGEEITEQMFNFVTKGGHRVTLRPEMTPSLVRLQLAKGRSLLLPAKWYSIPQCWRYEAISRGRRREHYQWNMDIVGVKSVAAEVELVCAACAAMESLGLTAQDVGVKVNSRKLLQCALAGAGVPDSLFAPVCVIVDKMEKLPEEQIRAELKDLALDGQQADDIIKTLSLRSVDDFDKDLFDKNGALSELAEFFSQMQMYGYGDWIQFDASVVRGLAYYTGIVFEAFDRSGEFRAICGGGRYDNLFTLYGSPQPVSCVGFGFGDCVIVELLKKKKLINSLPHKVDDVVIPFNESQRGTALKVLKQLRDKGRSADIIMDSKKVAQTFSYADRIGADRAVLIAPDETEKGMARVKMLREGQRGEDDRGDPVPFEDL
UniProt Q4DA54, 1-478: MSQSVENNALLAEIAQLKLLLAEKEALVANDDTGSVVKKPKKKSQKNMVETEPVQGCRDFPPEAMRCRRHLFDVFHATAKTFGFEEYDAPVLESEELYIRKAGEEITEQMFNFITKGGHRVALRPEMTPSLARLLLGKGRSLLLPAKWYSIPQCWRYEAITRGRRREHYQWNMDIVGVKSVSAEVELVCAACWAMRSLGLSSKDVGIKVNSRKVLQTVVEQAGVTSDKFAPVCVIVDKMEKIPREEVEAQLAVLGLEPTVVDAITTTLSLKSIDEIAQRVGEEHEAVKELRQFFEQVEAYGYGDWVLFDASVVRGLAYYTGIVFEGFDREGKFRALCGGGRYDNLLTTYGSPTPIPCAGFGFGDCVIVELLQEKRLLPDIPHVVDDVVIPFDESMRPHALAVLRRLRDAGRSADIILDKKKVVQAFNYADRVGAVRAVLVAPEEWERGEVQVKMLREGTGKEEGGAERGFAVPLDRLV

A: 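Histidine-tRNA ligase, Leishmania infantum (UniProt A4I591). Enzyme assay of histidyl-tRNA synthetase; the read-out is not stated. Tested at 30 µM. The record gives no direction; compounds that gave an IC50 in retests scored well above the rest, so higher reads as stronger inhibition. The assay is labelled LdHisRS but filed under L. infantum. About 69,000 compounds were tested under these conditions; 0.6% (about 410) showed 50% or more at least once.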
B: 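Enzyme assay of histidyl-tRNA synthetase; the read-out is not stated. Target: Histidine-tRNA ligase, Trypanosoma cruzi CL Brener (UniProt Q4DA54). Tested at 30 µM. The record gives no direction; compounds that gave an IC50 in retests scored well above the rest, so higher reads as stronger inhibition. Size under these conditions: about 69,000 compounds, about 31 of them at 50% or above in at least one test.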

Results are given as percent effect. How 0% and 100% were set is not recorded. Most values in the screen are low, and negative values occur. This is an unselected part of the compounds tested.

structure | A | B
Cc1nc(NC2CCCC2)cc(C2CCN2C(=O)c2cccnc2)n1 (centres undefined) | 25% | 3.784%
COCC(=O)N1CC[C@]2(O)CCN(C(=O)CCc3ccsc3)C[C@@H]2C1 | -18.68% | 8.911%
COc1ccc(CN2CCC(CO)(Cc3ccc(Cl)cc3)CC2)c(O)c1 | 14.47% | 1.087%
CC(=O)N(Cc1noc(C)n1)C1CCN(Cc2ccncc2Cl)C1 (centres undefined) | 18.92% | 3.383%
O=C(c1ccc2c(c1)CCC2)N1CC[C@H](O)[C@]2(CCCO2)C1 | 15.94% | 9.89%
CC(C)CC(=O)N1CCCC1c1ccsc1 (centres undefined) | 18.52% | -0.4464%
Cn1ccc2c(-c3ccc(NC4CC4)nn3)ccnc21 | 13.16% | 7.263%
Cc1ccc(-c2csc(-c3cccc(C(=O)O)c3)n2)cc1 | -10% | -2.41%
C1CN(CCN2CCOCC2)CCN1 | 18.56% | 4.624%
CC(C)NC(=O)CC1CC2(CCN(CC3CC3)CC2)Oc2ccccc21 (centres undefined) | 1.923% | 0.9709%
CN(C)S(=O)(=O)N1CC[C@]2(O)CCN(c3cc(C#N)ccn3)C[C@@H]2C1 | 15.69% | 6.173%
CN(Cc1nnc(C2CC2)n1C)C1CCN(Cc2ccccc2F)C1 (centres undefined) | 11.43% | 5.785%
O=C(NCCO)NC(c1ccccc1)c1ccc2c(c1)CCCO2 (centres undefined) | 12.5% | 13.54%
COc1ccc(C(=O)N(C)Cc2nnc3ccccn23)cc1 | -0.885% | 0.8746%
O=C(C1CCOC1)N1C[C@H]2CN(Cc3cccnc3)C(=O)[C@H]2C1 (some centres undefined) | 13.86% | 8.543%
CC(=O)N(C)c1nc(CN2CCOC(Cn3cccn3)C2)cs1 (centres undefined) | 19.23% | 0%
Cc1nc(CO[C@H]2CN(C(=O)c3cccn3C)[C@@H]3COC[C@H]23)cs1 | -6% | -2.062%
c1nc(N2CCCC2)ncc1CN1CCCC(CN2CCCCC2)C1 (centres undefined) | 27.06% | 8.04%
CC(C)(C)n1ccc(C(=O)N2CCCC(c3ccc(C(=O)O)cc3)C2)c1 (centres undefined) | 17.74% | 14.94%
O=C1CCC2(CCCN(c3ncc(F)cn3)CC2)N1Cc1ccccc1 (centres undefined) | 18.58% | 5.376%
CCc1ncc2c(n1)CN(Cc1cccc3c1OCCO3)CC2 | 40.3% | 12.77%
CS(=O)(=O)N1CCC[C@]2(C[C@@H](Oc3ncccc3F)CO2)C1 | 15.69% | 1.639%
COc1cc(F)ccc1N(C)Cc1cccnc1 | -1.408% | 4.972%
CC(C)Nc1cc(N2CCN(Cc3ccccc3)C(CCO)C2)ncn1 (centres undefined) | 17.11% | 7.389%
CN(Cc1cccc2ncccc12)C(=O)CCn1ccc(=O)[nH]c1=O | 11.97% | 2.703%
CCn1cc(S(=O)(=O)N2CCC(C)CC2)c(C)n1 | -1.235% | 1.339%
CCN1CCC(NC(=O)CN2CCCC2Cn2nc(C)cc2C)CC1 (centres undefined) | 19.05% | 3.759%
COC[C@]12COC[C@H]1CN(Cc1cc(OC)cc(OC)c1)C2 | 4.511% | -0.5525%
CN(Cc1ccncc1)C(=O)CCNS(=O)(=O)c1cccnc1 | 15.18% | 13.33%
O=C(NCCc1csc(-c2ncccn2)n1)c1cnn2c1CCCC2 | 11.39% | 6.466%
COc1ccc(C2CCCCCN2Cc2nnc(C)o2)cc1 (centres undefined) | 16.67% | 11.76%
Cc1nc(C2CCCCC2)sc1C(=O)O | 3.226% | 3.247%
CN1CCCCC[C@@H]2[C@@H]1[C@H](c1ccccc1)CN2C(=O)c1cccnc1 | 17.71% | 14.89%
O=C(c1cccc(O)c1)N1CCN(Cc2nnc(C3CCC3)o2)CC1 | -29.58% | 5.732%
CC(C)c1noc(C2CCCN2S(=O)(=O)Cc2ccc(F)cc2)n1 (centres undefined) | 10.45% | 4.255%
CC(=O)Nc1nc(C(=O)NCCOc2ccc(C)cc2)cs1 | 9.677% | -2.062%
O=C(NCc1ccco1)[C@@H]1CC[C@@H]2[C@@H](CCN2Cc2ccc(F)cc2)O1 | 69.86% | 21.78%
Cc1ccc(OCC(=O)NCc2sccc2C)nc1 | 12.9% | 3.061%
CC(C(=O)NCCN1CCCCCC1)n1cncn1 (centres undefined) | 16.67% | 0.7576%
COc1ccccc1OCC(=O)NS(=O)(=O)c1ccccc1F | 19.23% | -1.667%
CC(=O)N1CCC2(CC1)CC(NS(C)(=O)=O)c1ccccc1O2 (centres undefined) | 12.41% | 8.876%
CCc1noc(CNc2ccc(CC(=O)N3CCSCC3)cc2)n1 | 11.67% | 9.091%
CN(CC(F)(F)F)C(=O)C1CSCN1C(=O)OC(C)(C)C (centres undefined) | 17.31% | 2.479%
Cc1ccc([C@]2(O)CC[C@H]3CN(Cc4ccc(Cl)cc4Cl)C[C@H]32)nc1 | 10.31% | 5.556%
COC1CCN(CCNC(=O)NC(C)c2cccc(Cl)c2)CC1 (centres undefined) | 10.96% | 3.784%
O=C1CCC2(CCCN(C(=O)Cc3cccs3)C2)N1 (centres undefined) | 13.59% | -1.942%
O=S(=O)(C1CC1)N1CCC2(CC1)CN(Cc1nccs1)CCO2 | 20% | 11.49%
CCCc1ccc2oc(C(=O)N3CCCN(C)CC3)c(C)c2c1 | 13.11% | 9.013%
CC(C)(C)Nc1nc(-c2cccnc2)c(-c2ccnc(NCCO)n2)s1 | 22.86% | 10.17%
Cc1[nH]ncc1C(=O)N1CCCC(n2cncn2)C1 (centres undefined) | 8.108% | 2.632%
CCc1nc(C)c(C(=O)N2CCNCC2C(=O)Nc2ccc(C)nc2)o1 (centres undefined) | 11.97% | -7.027%
Cc1ccc(CN2C(=O)CC[C@]23CC[C@@H](NC2CCOC2)CC3)cc1 (some centres undefined) | 25.24% | 3.883%
O=C1NCCN1CCNCC1(O)CCCN(CCC2CCCCC2)C1=O (centres undefined) | 12% | 6.533%
CC(=O)N1CCCC1c1cc(N2CCN(CC(C)(C)C)CC2)cc(C)n1 (centres undefined) | 13.04% | 13.19%
O=C(N1CC(c2cccnc2)C1)C1(c2ccc(F)cc2)CCOCC1 | 15.5% | 8.333%
COc1ccc(CNc2nncs2)cc1F | 19.48% | 7.389%
CC(C)c1nc(CCNC(=O)NCc2ccnc(N(C)C)c2)cs1 | 13.51% | -1.88%
COC(=O)C(C)Sc1nnnn1C1CCOCC1 (centres undefined) | 14.52% | 4.598%
CNC(=O)CNC(=O)Nc1ccc(F)c(Br)c1 | 7.563% | 3.922%
CN1CCCC2(CCN(S(=O)(=O)c3c(Cl)nc4sccn34)C2)C1=O (centres undefined) | -7.937% | 3.59%
Cc1ccnc(CNC(=O)C2CC(=O)N(CCN(C)C)C2)c1 (centres undefined) | 22.83% | 0.9901%
CC(NC(=O)c1ccc(C(N)=O)cc1)c1cccc(N2CCOC2=O)c1 (centres undefined) | 11.11% | 7.879%
CS(=O)(=O)N1CCOC2(CCCN(c3cnccn3)C2)C1 (centres undefined) | 9.434% | 4.237%
CC(C)c1nc(CN(C)C2CCN(CCS(C)(=O)=O)C2)no1 (centres undefined) | 14.29% | 1.153%
Cn1c(C2CC2)nc2cc(NC(=O)C3CC=CC3)ccc21 | 9.677% | 9.74%
Cc1cc(=O)[nH]c(=O)n1Cc1ncc(-c2ccccc2C(=O)O)s1 | 9.929% | 6.977%
CS(=O)(=O)N1CCC(CNc2c(Cl)cccc2C#N)CC1 | 1.176% | 11.06%
CC(C)c1nnc2n1CCN(C(=O)c1ccc(CN(C)C)cc1)C2 | 0% | 0.3774%
Cc1ccc(C)c(CN2CCOC(c3noc(C)n3)C2)c1 (centres undefined) | -2.041% | 0%
O=C(NC1CCCN(c2ncccn2)C1)c1ccoc1 (centres undefined) | 20% | -22.83%
CC[C@@H](CO)NC(=O)c1coc(COc2ccc3sc(C)nc3c2)n1 | 18.4% | -0.5025%
CNc1cc(C2CCCN2C(=O)c2ccc(=O)[nH]n2)ccn1 (centres undefined) | 14.18% | 13.91%
CCOCC1CN(CC2CC2)Cc2nn(C)cc21 (centres undefined) | 4.587% | 7.563%
CC(C)n1cnnc1CNC(=O)c1cnn(Cc2ccccc2)c1 | 9.375% | 2.762%
CCC1COCCN1C(=O)NCc1cccc(-c2cnn(C)c2)c1 (centres undefined) | 8.065% | 4.598%
COCCS(=O)(=O)NCc1ccc(N(C)C)c(C)c1 | 8.235% | 6.03%
NC(=O)Cn1ccnc1C1CCCN(Cc2nc3ccccc3s2)C1 (centres undefined) | 15.08% | 5.882%
CNC(=O)C(C)(C)N1CCC[C@H]1C(=O)NCCN1CCOCC1 | 13.89% | -1.98%
COCCN1CC[C@H]2CN(c3cc(OC)ncn3)C[C@@H]2C1=O | -3.448% | 0%
Cc1ccc(CCNc2nccc(-c3cc(C(=O)O)ccn3)n2)o1 | 10.75% | 9.948%

6 of the entries, repeated:

| structure | A | B |
|---|---|---|
| `O=C(NCc1ccco1)[C@@H]1CC[C@@H]2[C@@H](CCN2Cc2ccc(F)cc2)O1` | 69.86% | 21.78% |
| `CCn1cc(S(=O)(=O)N2CCC(C)CC2)c(C)n1` | -1.235% | 1.339% |
| `Cc1ccc([C@]2(O)CC[C@H]3CN(Cc4ccc(Cl)cc4Cl)C[C@H]32)nc1` | 10.31% | 5.556% |
| `COC[C@]12COC[C@H]1CN(Cc1cc(OC)cc(OC)c1)C2` | 4.511% | -0.5525% |
| `CCc1noc(CNc2ccc(CC(=O)N3CCSCC3)cc2)n1` | 11.67% | 9.091% |
| `CNC(=O)C(C)(C)N1CCC[C@H]1C(=O)NCCN1CCOCC1` | 13.89% | -1.98% |

From ChEMBL document CHEMBL3988442, “University of Dundee, Small-Polar-MMV Screening Library” (2021).